# Data as given in patent US10865191B2, “Heterocyclic compounds useful as modulators of TNF alpha” (BRISTOL-MYERS SQUIBB COMPANY, priority 2015, dated 2020).
# Protein sequences, listed by entry. Tags and fused reporters are not part of them. Residues count along the entry.
# UniProt P01375, 77-233 limits assumed: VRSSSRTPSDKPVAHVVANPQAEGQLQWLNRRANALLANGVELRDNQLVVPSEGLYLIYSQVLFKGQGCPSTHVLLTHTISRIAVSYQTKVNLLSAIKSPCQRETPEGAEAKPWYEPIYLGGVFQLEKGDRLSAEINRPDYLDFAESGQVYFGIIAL
# Where two headings read alike, the source gives them in different places. Some results were stated once for a whole list of compounds, not compound by compound.
# Biological target: TNFα (Homo sapiens, UniProt P01375)
# Test: TNF induced HEK-Blue assay (NF-kB-driven secreted alkaline phosphatase reporter)
# Type: cell-based
# Procedure, shortened: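 HEK-Blue-CD40L cells (NF-kB-driven SEAP reporter), 20,000/well, added after 30 min pre-incubation of compound (0.004–25 μM final) with TNFα 0.5 ng/mL final at 37 °C; 18 h incubation. SEAP read with QUANTI-Blue at 620 nm; IC50 from 4-parameter logistic fit, normalized to unstimulated and stimulated DMSO controls.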
# [1] = TNFα 0.5 ng/mL, HEK-Blue-CD40L cells, 18 h; read-out: IC50 values measured in the TNF induced HEK-Blue assay
# [2] = read-out: IC50 values measured in the TNF induced HEK-Blue assay; TNFα 0.5 ng/mL, HEK-Blue-CD40L cells, 18 h
Compound,IC50 [1] [µM],IC50 [2] [µM]
"CC1Cc2ccccc2N1Nc1c(Cl)cnc2ccc(-c3cnc(C(C)(C)O)nc3)cc12 (racemic) [Example 48, 2-(5-(3-chloro-4-((2-methylindolin-1-yl)amino)quinolin-6-yl)pyrimidin-2-yl)propan-2-ol]",≤ 25,–
"Cc1ccc(C)c(Nc2c(Cl)c(C(=O)Nc3cccnc3)nc3ccc(-c4ccc(C#N)nc4)cc23)c1 [Example 32, 3-chloro-6-(6-cyanopyridin-3-yl)-4-((2,5-dimethylphenyl)amino)-N-(pyridin-3-yl)quinoline-2-carboxamide]",≤ 25,–
"C[C@@H](Nc1c(Cl)cnc2ccc(-c3ccc(C4(N)CCC4)cc3)cc12)c1ccccc1F [Example 118, (R)-6-(4-(1-aminocyclobutyl)phenyl)-3-chloro-N-(1-(2-fluorophenyl)ethyl)quinolin-4-amine]",≤ 25,–
"Cc1nc2ccc(-c3cnc(C(C)(C)O)nc3)cc2c(N[C@H](C)c2cc(N3CCCC3=O)ccc2F)c1Cl [Example 361, (R)-1-(3-(1-((3-chloro-6-(2-(2-hydroxypropan-2-yl)pyrimidin-5-yl)-2-methylquinolin-4-yl)amino)ethyl)-4-fluorophenyl)pyrrolidin-2-one]",≤ 25,–
"Cc1nc2cc(F)c(-c3cnc(C(C)(C)O)nc3)nc2c(N[C@H](C)c2cccc(CO)c2)c1Cl [Example 578, (R)-2-(5-(7-chloro-3-fluoro-8-((1-(3-(hydroxymethyl)phenyl)ethyl)amino)-6-methyl-1,5-naphthyridin-2-yl)pyrimidin-2-yl) propan-2-ol]",≤ 25,–
"COc1ccc(F)c([C@@H](C)Nc2ccnc3ccc(Cl)cc23)c1 [Example 456, (R)-6-chloro-N-(1-(2-fluoro-5-methoxyphenyl)ethyl)quinolin-4-amine]",≤ 25,–
"CC(Nc1c(Cl)cnc2cc(F)c(-c3ccc(C(O)CO)cc3)cc12)c1cc(C(N)=O)ccc1F (single isomer, unassigned) [Example 601, 3-(1-((3-chloro-6-(4-(1,2-dihydroxyethyl)phenyl)-7-fluoroquinolin-4-yl)amino)ethyl)-4-fluorobenzamide]",≤ 25,–
"C[C@@H](Nc1c(Cl)cnc2ccc(-c3cnc(C(C)(C)O)nc3)cc12)c1cc(-c2cnn(C)c2)ccc1F [Example 339, (R)-2-(5-(3-chloro-4-((1-(2-fluoro-5-(1-methyl-1H-pyrazol-4-yl)phenyl)ethyl)amino)quinolin-6-yl)pyrimidin-2-yl)propan-2-ol]",≤ 25,–
"Cc1ccc(C)c(Nc2c(Cl)c(C)nc3ccc(-c4cnc(C(C)(C)O)nc4)cc23)c1 [Example 1, 2-(5-(3-chloro-4-((2,5-dimethylphenyl)amino)-2-methylquinolin-6-yl)pyrimidin-2-yl)propan-2-ol]",–,≤ 25
"CC(Nc1c(Cl)cnc2ccc(-c3cnc(C(C)(C)O)nc3)cc12)[C@H]1CCCNC1 (single isomer, unassigned) [Example 96]",≤ 25,–
"C[C@@H](Nc1c(Cl)cnc2ccc(-c3ccc(N4CCNCC4)nc3)cc12)c1ccccc1F [Example 88, (R)-3-chloro-N-(1-(2-fluorophenyl)ethyl)-6-(6-(piperazin-1-yl)pyridin-3-yl)quinolin-4-amine]",≤ 25,–
"C[C@@H](Nc1c(Cl)cnc2ccc(-c3cnc(C(C)(C)O)nc3)cc12)c1cc(C#Cc2ccccc2)ccc1F [Example 411, (R)-2-(5-(3-chloro-4-((1-(2-fluoro-5-(phenylethynyl)phenyl)ethyl)amino)quinolin-6-yl)pyrimidin-2-yl)propan-2-ol]",≤ 25,–
"CC(Nc1c(Cl)cnc2cc(F)c(-c3cnc(C#N)nc3)cc12)c1ccccc1F (centres unmarked) [Example 255, 5-(3-chloro-7-fluoro-4-((1-(2-fluorophenyl)ethyl)amino)quinolin-6-yl)pyrimidine-2-carbonitrile]",≤ 25,–
"CCC(Nc1c(Cl)cnc2ccc(-c3cnc(C(C)(C)O)nc3)cc12)c1ccccc1F (racemic) [Example 190, 2-(5-(3-chloro-4-((1-(2-fluorophenyl)propyl)amino)quinolin-6-yl)pyrimidin-2-yl)propan-2-ol]",–,≤ 25
"C[C@@H](Nc1c(Cl)cnc2ccc(-c3cnc(C4CCN(CC(=O)O)CC4)nc3)cc12)c1ccccc1F [Example 593, (R)-2-(4-(5-(3-chloro-4-((1-(2-fluorophenyl)ethyl)amino)quinolin-6-yl)pyrimidin-2-yl)piperidin-1-yl)acetic acid]",≤ 25,–
"CC(Nc1c(Cl)cnc2ccc(-c3cnc(C(C)(C)O)nc3)cc12)c1cccc(C(F)(F)F)c1 (racemic) [Example 147, 2-(5-(3-chloro-4-((1-(3-(trifluoromethyl)phenyl)ethyl)amino)quinolin-6-yl)pyrimidin-2-yl)propan-2-ol]",≤ 25,–
"C[C@@H](Nc1c(Cl)cnc2ccc(-c3ccc(CNC(N)=O)cc3)cc12)c1ccccc1F [Example 569, (R)-1-(4-(3-chloro-4-((1-(2-fluorophenyl)ethyl)amino)quinolin-6-yl)benzyl)urea]",≤ 25,–
"C[C@@H](Nc1c(Cl)cnc2ccc(-c3ccc(C4(NCCO)CCC4)cc3)cc12)c1ccccc1F [Example 568, (R)-2-((1-(4-(3-chloro-4-((1-(2-fluorophenyl)ethyl)amino)quinolin-6-yl)phenyl)cyclobutyl)amino)ethan-1-ol]",≤ 25,–
"Cc1nc2ccc(-c3ccc(C(C)(C)O)cc3)cc2c(NC(C)c2ccccc2F)c1Cl (racemic) [Example 308, 2-(4-(3-chloro-4-((1-(2-fluorophenyl)ethyl)amino)-2-methylquinolin-6-yl)phenyl) propan-2-ol]",≤ 25,–
"CC(Nc1c(Cl)cnc2cc(F)c(-c3cnc(C(C)(C)O)nc3)cc12)c1ccccc1F (centres unmarked) [Example 252, 2-(5-(3-chloro-7-fluoro-4-((1-(2-fluorophenyl)ethyl)amino)quinolin-6-yl)pyrimidin-2-yl)propan-2-ol]",–,≤ 25
"Cc1nc2cc(F)c(-c3cnc(C(C)(C)O)nc3)cc2c(N[C@H](C)c2cc(OCCO)ccc2F)c1Cl [Example 324, (R)-2-(5-(3-chloro-7-fluoro-4-((1-(2-fluoro-5-(2-hydroxyethoxy)phenyl)ethyl)amino)-2-methylquinolin-6-yl)pyrimidin-2-yl)propan-2-ol]",≤ 25,–
"C[C@@H](Nc1c(Cl)cnc2ccccc12)c1cc(-c2cnn(C)c2)ccc1F [Example 454, (R)-3-chloro-N-(1-(2-fluoro-5-(1-methyl-1H-pyrazol-4-yl)phenyl)ethyl)quinolin-4-amine]",≤ 25,–

# Next, values leading:
IC50 [1] [µM],IC50 [2] [µM],Compound
≤ 25,–,"CC(C)(O)c1ncc(-c2ccc3ncc(Cl)c(NC(c4ccccc4F)C(C)(C)O)c3c2)cn1 (racemic) [Example 49, 1-((3-chloro-6-(2-(2-hydroxypropan-2-yl)pyrimidin-5-yl)quinolin-4-yl)amino)-1-(2-fluorophenyl)-2-methylpropan-2-ol]"
≤ 25,–,"C[C@@H](Nc1c(Cl)cnc2ccc(Br)cc12)c1cc(-c2cncnc2)ccc1F [Example 532, (R)-6-bromo-3-chloro-N-(1-(2-fluoro-5-(pyrimidin-5-yl)phenyl)ethyl)quinolin-4-amine]"
≤ 25,–,"C[C@@H](Nc1c(Cl)cnc2ccc(-c3ccc(CN4CCC4)cc3)cc12)c1ccccc1F [Example 30, (R)-6-(4-(azetidin-1-ylmethyl)phenyl)-3-chloro-N-(1-(2-fluorophenyl)ethyl)quinolin-4-amine]"
≤ 25,–,"C=Cc1ccc(F)c([C@H](Nc2c(Cl)c(C)nc3ccc(-c4cnc(C(C)(C)O)nc4)cc23)C(F)F)c1 [Example 352, (S)-2-(5-(3-chloro-4-((2,2-difluoro-1-(2-fluoro-5-vinylphenyl)ethyl)amino)-2-methylquinolin-6-yl)pyrimidin-2-yl)propan-2-ol]"
≤ 25,–,"Cc1nc2cc(F)c(-c3cnc(C(C)(C)O)nc3)cc2c(N[C@H](C)c2cc(CCC(=O)O)ccc2F)c1Cl [Example 446, (R)-3-(3-(1-((3-chloro-7-fluoro-6-(2-(2-hydroxypropan-2-yl)pyrimidin-5-yl)-2-methylquinolin-4-yl)amino)ethyl)-4-fluorophenyl)propanoic acid]"
≤ 25,–,"CC(Nc1c(Cl)cnc2cc(F)c(-c3cnc(C(C)(C)O)cn3)cc12)c1ccccc1F (single isomer, unassigned) [Example 595, 2-(5-(3-chloro-7-fluoro-4-((1-(2-fluorophenyl)ethyl)amino)quinolin-6-yl)pyrazin-2-yl)propan-2-ol]"
≤ 25,–,"C[C@H](Nc1c(Cl)cnc2ccc(-c3cnc(C(C)(C)O)nc3)cc12)[C@H]1CCCN(S(=O)(=O)c2cnn(C)c2)C1 [Example 564, 2-(5-(3-chloro-4-(((S)-1-((S)-1-((1-methyl-1H-pyrazol-4-yl)sulfonyl)piperidin-3-yl)ethyl)amino)quinolin-6-yl)pyrimidin-2-yl)propan-2-ol]"
≤ 25,–,"Cc1nc2cc(F)c(-c3cnc(N4CCNC(=O)C4)nc3)cc2c(N[C@H](C)c2cc(Br)ccc2F)c1Cl [Example 560, (R)-4-(5-(4-((1-(5-bromo-2-fluorophenyl)ethyl)amino)-3-chloro-7-fluoro-2-methylquinolin-6-yl)pyrimidin-2-yl)piperazin-2-one]"
≤ 25,–,"CCCC(C)C(N)c1c(Cl)c(C)nc2ccc(-c3cnc(C(C)(C)O)nc3)cc12 (single isomer, unassigned) [Example 357, 2-(5-(4-(1-amino-2-methylpentyl)-3-chloro-2-methylquinolin-6-yl)pyrimidin-2-yl)propan-2-ol]"
≤ 25,–,"CC(O)C(=O)N1CCN(c2ncc(-c3cc4c(NC(C)c5ccccc5F)c(Cl)cnc4cc3F)cn2)CC1 (single isomer, unassigned) [Example 603, 1-(4-(5-(3-chloro-7-fluoro-4-((1-(2-fluorophenyl)ethyl)amino)quinolin-6-yl)pyrimidin-2-yl)piperazin-1-yl)-2-hydroxypropan-1-one]"
